# Data source: PubChem BioAssay AID1224828 (NIAID, 2016)
# Screen: 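Knock-downs that increase or decrease LPS-induced p65 nuclear translocation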 (primary screen)
# Cells: mouse RAW264.7 G9 macrophage reporter cells (GFP-p65, Tnf promoter-mCherry)
# Reagents: siRNA pool against mouse genes, 100 nM
# Time to read-out: 2 days siRNA transfection, then 40 min LPS before fixation
# Conditions: LPS (Salmonella minnesota R595) at 10 ng/ml
# Read-out: 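Microscopy ratio of nuclear to perinuclear-ring GFP-p65 signal, scaled to the plate median; gene score is the average of two replicate robust z-scores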
# Direction: p65 translocation robust z-score: higher = more nuclear NF-kappaB p65 after LPS than the plate median; nuclear/cytoplasmic p65 ratio: higher = more nuclear NF-kappaB p65
# Active means: 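Active if robust z is above 3.3 (negative regulators) or below -1.56, the Tlr4 control median (positive regulators); activity score 50 or more; control wells not called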
# Calls: active = hit (p65 shift raised or lowered); inactive = no clear change
# This is a random part of about 17,000 reagents. 762 of all reagents (4.5%) were called active. 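Active calls include both raised and lowered p65 entry, mostly lowered; wells with fewer than 50 cells lack a z-score.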 The raw values are shown without normalisation.
gene,p65 translocation robust z-score,"nuclear/cytoplasmic p65 ratio, rep 1","nuclear/cytoplasmic p65 ratio, rep 2",low cell count flag,activity call
Hinfp (histone H4 transcription factor),0.7,1.68,1.75,enough cells to score,inactive
Phxr2 (per-hexamer repeat gene 2),0.94,1.56,1.36,enough cells to score,inactive
Foxl2 (forkhead box L2),0.35,1.46,1.43,enough cells to score,inactive
Ddx59 (DEAD box helicase 59),,1.48,1.59,fewer than 50 cells per well; well left out of scoring,inactive
Ints13 (integrator complex subunit 13),1.54,1.41,1.82,enough cells to score,inactive
Tspo2 (translocator protein 2),0.71,1.53,1.41,enough cells to score,inactive
Lmf2 (lipase maturation factor 2),1.29,1.87,1.81,enough cells to score,inactive
Ddit4 (DNA-damage-inducible transcript 4),,1.36,1.56,fewer than 50 cells per well; well left out of scoring,inactive
Or4m1 (olfactory receptor family 4 subfamily M member 1),-0.65,1.35,1.22,enough cells to score,inactive
Spata9 (spermatogenesis associated 9),-0.74,1.25,1.37,enough cells to score,inactive

Next part; the last 2 above are carried over.
gene,p65 translocation robust z-score,"nuclear/cytoplasmic p65 ratio, rep 1","nuclear/cytoplasmic p65 ratio, rep 2",low cell count flag,activity call
Or4m1 (olfactory receptor family 4 subfamily M member 1),-0.65,1.35,1.22,enough cells to score,inactive
Spata9 (spermatogenesis associated 9),-0.74,1.25,1.37,enough cells to score,inactive
Mzb1 (marginal zone B and B1 cell-specific protein 1),,1.31,1.24,fewer than 50 cells per well; well left out of scoring,inactive
Tmem132a (transmembrane protein 132A),3.65,2.05,1.94,enough cells to score,active
Or1e34 (olfactory receptor family 1 subfamily E member 34),,1.4,1.35,fewer than 50 cells per well; well left out of scoring,inactive
Slfn8 (schlafen 8),,1.96,1.29,fewer than 50 cells per well; well left out of scoring,inactive
Cdip1 (cell death inducing Trp53 target 1),,1.35,1.56,fewer than 50 cells per well; well left out of scoring,inactive
Ifna1 (interferon alpha 1),-0.69,1.38,1.3,enough cells to score,inactive
"Il2rg (interleukin 2 receptor, gamma chain)",0.76,1.59,1.47,enough cells to score,inactive
Sh3bgrl3 (SH3 domain binding glutamic acid-rich protein-like 3),,1.6,1.21,fewer than 50 cells per well; well left out of scoring,inactive
Reg3b (regenerating islet-derived 3 beta),-0.88,1.35,1.28,enough cells to score,inactive
Dmpk (dystrophia myotonica-protein kinase),1.13,1.89,1.51,enough cells to score,inactive
AY036118 (cDNA sequence AY036118),-0.12,1.45,1.63,enough cells to score,inactive
"Fnta (farnesyltransferase, CAAX box, alpha)",,1.25,1.29,fewer than 50 cells per well; well left out of scoring,inactive
"Myh8 (myosin, heavy polypeptide 8, skeletal muscle, perinatal)",-0.89,1.18,1.13,enough cells to score,inactive
Lrrtm2 (leucine rich repeat transmembrane neuronal 2),-0.36,1.65,1.51,enough cells to score,inactive
